Our source for the Kd values is paper PMC8038994, “RNA and DNA G-quadruplexes bind to human dicer and inhibit its activity”.

The exact form of at least one protein or probe is not confirmed. Where a protein sequence is shown, tags need not be part of it.

The data set addresses T1, hDicer PPC cassette (Homo sapiens) (UniProt Q9UPY3).
T1 sequence (looked up): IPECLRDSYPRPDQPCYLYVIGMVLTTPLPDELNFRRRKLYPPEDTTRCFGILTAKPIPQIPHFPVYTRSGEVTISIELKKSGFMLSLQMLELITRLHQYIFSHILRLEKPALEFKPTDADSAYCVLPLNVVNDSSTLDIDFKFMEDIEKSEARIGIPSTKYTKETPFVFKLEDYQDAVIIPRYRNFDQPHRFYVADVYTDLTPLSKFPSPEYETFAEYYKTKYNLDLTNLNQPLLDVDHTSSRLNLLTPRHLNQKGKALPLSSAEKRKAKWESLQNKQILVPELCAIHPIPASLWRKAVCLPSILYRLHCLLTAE
Briefly: EMSA. Particulars: EMSA: 20 mM Tris-HCl pH 7.4, 100 mM KCl, 30 min on ice; 5% or 10% native PAGE at 4 C in 1x TBE; G-rich oligos folded in 50 mM KCl; recombinant protein; residues 753-1068; protein details: N-terminal 6xHis (pMCSG7); label: 5'-32P. (In general: In EMSA bound probe runs differently from free probe, usually more slowly.)

For orientation: Kd means the equilibrium constant for the complex coming apart. “UCGAAGUAUUCCGCGUACGUG / CGUACGCGGAAUACUUCGAAA [dsRNA_OV]”: the Kd was found to be 50 nM.
